Experimental data: PubChem BioAssay AID504764 (Drosophila RNAi Screening Center, 2011)
The screen tested about 22,000 reagents; shown is an unselected part of those that have a named target and a result. In the full data, 403 (1.9%) got an active call. 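Unnormalised raw counts per well; ratio z-scores behind the hit calls and whether each hit raises or lowers signal are not deposited.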 A number with no mark means an inactive call. Not given: the amount of reagent.

Assay: 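Genes whose knock-down alters Notch-dependent transcription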 (primary screen)
Cell system: Drosophila Kc167 cells
Reagent: long dsRNA against Drosophila genes
Time to read-out: about 5 days (4 days dsRNA, then 24 h after transfection)
Conditions: transfection of constitutively active membrane-tethered Notch lacking the extracellular domain, read 24 h later
Detection: 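Firefly luciferase from an E(spl)m3 reporter with active Notch, plus control-promoter and uninduced reporter wells for normalisation; unnormalised counts, duplicate wells a and b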
Direction: induced reporter light, run 1, well a and induced reporter light, run 1, well b: higher = more light from the Notch target reporter with active Notch; control promoter light, run 1, well a and control promoter light, run 1, well b: higher = more light from the viral control promoter (cell number, transfection, viability); uninduced reporter light, run 1, well a: higher = more light from the Notch target reporter without active Notch
Call rule: 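Hit if the duplicate-averaged log2 ratio of induced to control-promoter light gives a plate-wise z beyond ±2, or induced to uninduced beyond ±1.8; weak-control or discordant-duplicate wells dropped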
Meaning of the calls: active = modifier hit (raised or lowered Notch signal); inactive = not a hit

Oda (Ornithine decarboxylase antizyme) [DRSC07626] | induced reporter light, run 1, well a: 94350; induced reporter light, run 1, well b: 84190; control promoter light, run 1, well a: 1.24e5; control promoter light, run 1, well b: 1.20e5; uninduced reporter light, run 1, well a: 8765
RabGGTb (Rab geranylgeranyltransferase subunit beta) [DRSC00804] | induced reporter light, run 1, well a: 1.80e5; induced reporter light, run 1, well b: 1.79e5; control promoter light, run 1, well a: 1.80e5; control promoter light, run 1, well b: 1.87e5; uninduced reporter light, run 1, well a: 18382
esn (espinas) [DRSC05039] | induced reporter light, run 1, well a: 35495; induced reporter light, run 1, well b: 42300; control promoter light, run 1, well a: 69880; control promoter light, run 1, well b: 55770; uninduced reporter light, run 1, well a: 1910
esn (espinas) [DRSC07612] | induced reporter light, run 1, well a: 1.67e5; induced reporter light, run 1, well b: 1.72e5; control promoter light, run 1, well a: 2.29e5; control promoter light, run 1, well b: 1.95e5; uninduced reporter light, run 1, well a: 14930
CG4074 [DRSC11752] | induced reporter light, run 1, well a: 1.32e5; induced reporter light, run 1, well b: 1.53e5; control promoter light, run 1, well a: 1.14e5; control promoter light, run 1, well b: 1.16e5; uninduced reporter light, run 1, well a: 12000
ACXB (Adenylyl cyclase X B) [DRSC00845] | induced reporter light, run 1, well a: 1.31e5; induced reporter light, run 1, well b: 1.58e5; control promoter light, run 1, well a: 1.46e5; control promoter light, run 1, well b: 1.45e5; uninduced reporter light, run 1, well a: 10815
CG17027 [DRSC10238] | induced reporter light, run 1, well a: 1.44e5; induced reporter light, run 1, well b: 1.42e5; control promoter light, run 1, well a: 59000; control promoter light, run 1, well b: 83310; uninduced reporter light, run 1, well a: 8135
Or45b (Odorant receptor 45b) [DRSC07488] | induced reporter light, run 1, well a: 1.69e5; induced reporter light, run 1, well b: 1.31e5; control promoter light, run 1, well a: 1.80e5; control promoter light, run 1, well b: 1.61e5; uninduced reporter light, run 1, well a: 13970
prd (paired) [DRSC03597] | induced reporter light, run 1, well a: 1.88e5; induced reporter light, run 1, well b: 1.74e5; control promoter light, run 1, well a: 1.73e5; control promoter light, run 1, well b: 2.32e5; uninduced reporter light, run 1, well a: 14045
Brd7-9 (Bromodomain containing 7/9) [DRSC03017] | induced reporter light, run 1, well a: 2.89e5; induced reporter light, run 1, well b: 2.40e5; control promoter light, run 1, well a: 3.12e5; control promoter light, run 1, well b: 3.30e5; uninduced reporter light, run 1, well a: 22735

Laid out differently: entries from further up.
gene | amplicon | induced reporter light, run 1, well a | induced reporter light, run 1, well b | control promoter light, run 1, well a | control promoter light, run 1, well b | uninduced reporter light, run 1, well a
RabGGTb (Rab geranylgeranyltransferase subunit beta) | DRSC00804 | 1.80e5 | 1.79e5 | 1.80e5 | 1.87e5 | 18382
esn (espinas) | DRSC05039 | 35495 | 42300 | 69880 | 55770 | 1910

More results:
CG6900 (retired record) [DRSC20018] | induced reporter light, run 1, well a: 94330; induced reporter light, run 1, well b: 85525; control promoter light, run 1, well a: 1.05e5; control promoter light, run 1, well b: 1.16e5; uninduced reporter light, run 1, well a: 10515
NPFR (Neuropeptide F receptor) [DRSC12173] | induced reporter light, run 1, well a: 1.22e5; induced reporter light, run 1, well b: 1.24e5; control promoter light, run 1, well a: 97515; control promoter light, run 1, well b: 91420; uninduced reporter light, run 1, well a: 9850
CG6426 [DRSC06985] | induced reporter light, run 1, well a: 1.24e5; induced reporter light, run 1, well b: 82990; control promoter light, run 1, well a: 1.14e5; control promoter light, run 1, well b: 1.26e5; uninduced reporter light, run 1, well a: 7220
snRNP-U1-70K (small ribonucleoprotein particle U1 subunit 70K) [DRSC03612] | induced reporter light, run 1, well a: 68655; induced reporter light, run 1, well b: 58880; control promoter light, run 1, well a: 83315; control promoter light, run 1, well b: 56375; uninduced reporter light, run 1, well a: 3310
PIG-O (Phosphatidylinositol glycan anchor biosynthesis class O) [DRSC06123] | induced reporter light, run 1, well a: 60395; induced reporter light, run 1, well b: 60405; control promoter light, run 1, well a: 96580; control promoter light, run 1, well b: 79850; uninduced reporter light, run 1, well a: 4382
CG5543 [DRSC04511] | induced reporter light, run 1, well a: 2.29e5; induced reporter light, run 1, well b: 2.03e5; control promoter light, run 1, well a: 1.59e5; control promoter light, run 1, well b: 1.63e5; uninduced reporter light, run 1, well a: 15720
Ser7 [DRSC18201] | induced reporter light, run 1, well a: 2.02e5; induced reporter light, run 1, well b: 1.83e5; control promoter light, run 1, well a: 2.10e5; control promoter light, run 1, well b: 2.07e5; uninduced reporter light, run 1, well a: 12945
CG34112 [DRSC12235] | induced reporter light, run 1, well a: 1.70e5; induced reporter light, run 1, well b: 1.27e5; control promoter light, run 1, well a: 1.29e5; control promoter light, run 1, well b: 1.03e5; uninduced reporter light, run 1, well a: 8232
